Counter-ions that a name gives are not always drawn. Some of the results follow. Hit calls seldom repeat between salt and free forms of one compound.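 Kinases were expressed as nanoluciferase fusions in K562 cells and luminescence was read every 4 h between 2 and 18 h as percent of control, DMSO set to 100% and a positive control to 0%. A time point counts as decreased when the signal drops significantly (2 sigma). The hit call is the authors' own, does not follow from the count of time points alone, and its rule is not shown.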
Experiments:
Assay in all cases: kinase-Nluc reporter destabilization hit call (1 = scored as downregulated) (binary); higher = compound decreases kinase abundance
Settings in all cases: K562; 2-18 h
RET = RET (UniProt P07949)
[1] = target: RET_M918T (clone: RET_mut) (UniProt P07949)
RIOK1 = RIOK1 (UniProt Q9BRS2)
RIPK1 = RIPK1 (UniProt Q13546)
RIPK2 = RIPK2 (UniProt O43353)
ROR2 = ROR2 (UniProt Q01974)
RPS6KA1 = RPS6KA1 (UniProt Q15418)
SPHK1 = SPHK1 (UniProt Q9NYA1)
SRC = SRC (UniProt P12931)
STK24 = STK24 (UniProt Q9Y6E0)

Protein sequences, listed by entry. Tags and fused reporters are not part of them. Lines headed by an entry give the natural chain unless they say otherwise; changes in a name come on top.
UniProt P07949, whole entry, looked up: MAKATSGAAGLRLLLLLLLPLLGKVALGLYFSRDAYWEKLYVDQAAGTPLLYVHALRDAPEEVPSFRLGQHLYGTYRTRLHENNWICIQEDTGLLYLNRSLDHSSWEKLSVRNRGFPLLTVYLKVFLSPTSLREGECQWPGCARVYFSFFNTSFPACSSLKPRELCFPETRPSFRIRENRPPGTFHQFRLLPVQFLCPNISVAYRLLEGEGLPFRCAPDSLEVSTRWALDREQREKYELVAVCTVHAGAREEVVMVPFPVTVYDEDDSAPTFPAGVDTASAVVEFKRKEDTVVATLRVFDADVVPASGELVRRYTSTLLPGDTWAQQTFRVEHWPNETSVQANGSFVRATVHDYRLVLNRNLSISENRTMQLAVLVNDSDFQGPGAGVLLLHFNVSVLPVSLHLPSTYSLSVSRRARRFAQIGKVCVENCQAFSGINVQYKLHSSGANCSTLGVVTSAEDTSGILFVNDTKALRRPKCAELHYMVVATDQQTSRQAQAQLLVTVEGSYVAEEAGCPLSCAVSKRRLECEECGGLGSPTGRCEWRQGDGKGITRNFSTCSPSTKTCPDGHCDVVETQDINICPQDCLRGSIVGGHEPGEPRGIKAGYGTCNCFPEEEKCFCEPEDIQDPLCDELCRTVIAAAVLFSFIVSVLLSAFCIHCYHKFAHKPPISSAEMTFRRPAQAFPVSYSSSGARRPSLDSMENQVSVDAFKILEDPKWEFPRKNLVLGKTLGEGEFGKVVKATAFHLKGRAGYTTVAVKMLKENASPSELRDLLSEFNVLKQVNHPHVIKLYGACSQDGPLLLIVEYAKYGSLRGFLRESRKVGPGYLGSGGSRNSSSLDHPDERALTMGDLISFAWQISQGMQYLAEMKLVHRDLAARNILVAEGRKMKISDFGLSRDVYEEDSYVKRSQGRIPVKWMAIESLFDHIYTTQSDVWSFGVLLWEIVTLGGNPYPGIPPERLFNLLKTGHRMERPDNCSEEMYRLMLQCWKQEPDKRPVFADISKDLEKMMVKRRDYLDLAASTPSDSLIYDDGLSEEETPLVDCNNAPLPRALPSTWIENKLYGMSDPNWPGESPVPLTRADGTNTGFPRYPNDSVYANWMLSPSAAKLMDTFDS
UniProt P07949, whole entry M918T, looked up: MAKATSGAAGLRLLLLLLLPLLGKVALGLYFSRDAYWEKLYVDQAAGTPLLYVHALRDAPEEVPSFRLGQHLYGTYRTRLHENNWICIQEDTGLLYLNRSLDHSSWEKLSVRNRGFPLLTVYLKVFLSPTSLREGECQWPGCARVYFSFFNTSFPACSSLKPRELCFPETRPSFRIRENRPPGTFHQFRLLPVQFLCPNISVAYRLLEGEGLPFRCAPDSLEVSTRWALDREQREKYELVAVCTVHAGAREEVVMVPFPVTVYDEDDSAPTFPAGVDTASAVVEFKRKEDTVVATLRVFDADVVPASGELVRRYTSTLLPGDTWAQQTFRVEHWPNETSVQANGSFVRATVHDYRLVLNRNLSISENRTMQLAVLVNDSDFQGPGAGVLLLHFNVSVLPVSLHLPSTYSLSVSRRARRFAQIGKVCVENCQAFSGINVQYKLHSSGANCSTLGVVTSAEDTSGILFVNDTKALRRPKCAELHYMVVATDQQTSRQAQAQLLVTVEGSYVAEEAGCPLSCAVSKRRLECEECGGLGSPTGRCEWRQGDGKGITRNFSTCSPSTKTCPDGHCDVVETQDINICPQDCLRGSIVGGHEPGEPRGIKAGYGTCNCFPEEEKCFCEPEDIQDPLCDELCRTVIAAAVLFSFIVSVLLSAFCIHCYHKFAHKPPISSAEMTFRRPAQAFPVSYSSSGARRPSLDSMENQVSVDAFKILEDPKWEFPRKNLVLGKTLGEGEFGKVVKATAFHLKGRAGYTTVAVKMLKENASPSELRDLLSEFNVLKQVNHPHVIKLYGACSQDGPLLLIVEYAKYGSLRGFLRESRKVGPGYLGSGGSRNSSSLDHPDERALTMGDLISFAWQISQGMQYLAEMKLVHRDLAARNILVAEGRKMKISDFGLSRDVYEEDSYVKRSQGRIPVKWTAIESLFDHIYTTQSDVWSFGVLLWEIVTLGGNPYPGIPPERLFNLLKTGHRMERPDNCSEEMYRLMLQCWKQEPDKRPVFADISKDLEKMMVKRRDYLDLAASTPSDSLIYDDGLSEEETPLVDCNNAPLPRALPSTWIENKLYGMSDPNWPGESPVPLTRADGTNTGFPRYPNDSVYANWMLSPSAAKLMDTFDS
UniProt Q9BRS2: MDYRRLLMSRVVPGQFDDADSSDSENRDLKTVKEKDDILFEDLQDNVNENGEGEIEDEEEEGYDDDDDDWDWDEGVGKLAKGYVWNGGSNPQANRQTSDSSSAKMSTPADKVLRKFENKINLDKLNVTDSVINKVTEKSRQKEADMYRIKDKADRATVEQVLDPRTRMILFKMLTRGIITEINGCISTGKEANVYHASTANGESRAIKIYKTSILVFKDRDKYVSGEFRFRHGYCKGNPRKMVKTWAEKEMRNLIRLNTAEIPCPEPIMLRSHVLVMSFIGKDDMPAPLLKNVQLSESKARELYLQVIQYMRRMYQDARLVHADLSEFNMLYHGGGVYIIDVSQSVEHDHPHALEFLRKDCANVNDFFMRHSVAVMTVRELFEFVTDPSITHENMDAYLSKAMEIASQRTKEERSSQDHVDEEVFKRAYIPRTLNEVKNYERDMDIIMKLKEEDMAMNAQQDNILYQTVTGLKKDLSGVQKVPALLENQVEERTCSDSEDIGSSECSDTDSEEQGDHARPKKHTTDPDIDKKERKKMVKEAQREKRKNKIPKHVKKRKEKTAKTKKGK
UniProt Q13546: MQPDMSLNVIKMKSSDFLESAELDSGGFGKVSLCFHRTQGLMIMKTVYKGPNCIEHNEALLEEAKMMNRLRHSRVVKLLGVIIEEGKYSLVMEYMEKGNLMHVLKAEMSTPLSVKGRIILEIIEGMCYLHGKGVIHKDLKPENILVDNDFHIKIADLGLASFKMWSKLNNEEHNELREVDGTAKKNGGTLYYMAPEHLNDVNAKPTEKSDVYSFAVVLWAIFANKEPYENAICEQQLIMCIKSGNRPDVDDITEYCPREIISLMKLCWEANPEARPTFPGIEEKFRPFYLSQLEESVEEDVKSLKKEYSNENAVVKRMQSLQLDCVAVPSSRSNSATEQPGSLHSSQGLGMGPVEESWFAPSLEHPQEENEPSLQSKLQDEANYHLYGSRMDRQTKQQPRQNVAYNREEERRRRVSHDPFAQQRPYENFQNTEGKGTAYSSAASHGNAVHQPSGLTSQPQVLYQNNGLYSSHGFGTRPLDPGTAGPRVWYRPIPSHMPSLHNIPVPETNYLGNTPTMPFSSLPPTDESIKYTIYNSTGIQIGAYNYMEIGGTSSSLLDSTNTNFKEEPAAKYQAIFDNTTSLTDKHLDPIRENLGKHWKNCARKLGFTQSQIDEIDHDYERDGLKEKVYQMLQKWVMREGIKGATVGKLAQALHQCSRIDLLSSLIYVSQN
UniProt Q01974, whole entry: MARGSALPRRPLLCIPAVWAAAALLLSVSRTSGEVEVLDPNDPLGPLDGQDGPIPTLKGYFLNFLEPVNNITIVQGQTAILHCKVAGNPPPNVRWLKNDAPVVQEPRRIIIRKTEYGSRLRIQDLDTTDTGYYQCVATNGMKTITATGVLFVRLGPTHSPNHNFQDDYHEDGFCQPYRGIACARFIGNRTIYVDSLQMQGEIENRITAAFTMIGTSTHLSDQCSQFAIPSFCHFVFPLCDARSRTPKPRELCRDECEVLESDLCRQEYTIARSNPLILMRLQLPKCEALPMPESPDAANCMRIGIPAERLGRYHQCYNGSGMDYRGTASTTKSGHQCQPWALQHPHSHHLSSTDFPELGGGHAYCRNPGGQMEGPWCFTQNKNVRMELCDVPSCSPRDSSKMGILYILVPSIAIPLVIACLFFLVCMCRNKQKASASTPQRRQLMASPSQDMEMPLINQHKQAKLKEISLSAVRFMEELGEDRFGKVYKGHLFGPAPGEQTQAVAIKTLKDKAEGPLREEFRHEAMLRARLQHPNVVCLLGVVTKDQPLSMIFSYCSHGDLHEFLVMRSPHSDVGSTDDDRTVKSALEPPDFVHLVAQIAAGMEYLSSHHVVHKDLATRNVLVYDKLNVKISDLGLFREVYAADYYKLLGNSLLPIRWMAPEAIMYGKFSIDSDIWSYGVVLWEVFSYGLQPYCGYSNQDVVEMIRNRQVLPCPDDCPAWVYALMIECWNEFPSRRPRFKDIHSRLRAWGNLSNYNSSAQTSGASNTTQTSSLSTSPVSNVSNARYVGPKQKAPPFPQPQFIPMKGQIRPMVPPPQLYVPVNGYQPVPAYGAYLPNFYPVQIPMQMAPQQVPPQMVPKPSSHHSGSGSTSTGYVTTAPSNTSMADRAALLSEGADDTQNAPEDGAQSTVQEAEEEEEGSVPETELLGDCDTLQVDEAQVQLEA
UniProt Q15418, whole entry: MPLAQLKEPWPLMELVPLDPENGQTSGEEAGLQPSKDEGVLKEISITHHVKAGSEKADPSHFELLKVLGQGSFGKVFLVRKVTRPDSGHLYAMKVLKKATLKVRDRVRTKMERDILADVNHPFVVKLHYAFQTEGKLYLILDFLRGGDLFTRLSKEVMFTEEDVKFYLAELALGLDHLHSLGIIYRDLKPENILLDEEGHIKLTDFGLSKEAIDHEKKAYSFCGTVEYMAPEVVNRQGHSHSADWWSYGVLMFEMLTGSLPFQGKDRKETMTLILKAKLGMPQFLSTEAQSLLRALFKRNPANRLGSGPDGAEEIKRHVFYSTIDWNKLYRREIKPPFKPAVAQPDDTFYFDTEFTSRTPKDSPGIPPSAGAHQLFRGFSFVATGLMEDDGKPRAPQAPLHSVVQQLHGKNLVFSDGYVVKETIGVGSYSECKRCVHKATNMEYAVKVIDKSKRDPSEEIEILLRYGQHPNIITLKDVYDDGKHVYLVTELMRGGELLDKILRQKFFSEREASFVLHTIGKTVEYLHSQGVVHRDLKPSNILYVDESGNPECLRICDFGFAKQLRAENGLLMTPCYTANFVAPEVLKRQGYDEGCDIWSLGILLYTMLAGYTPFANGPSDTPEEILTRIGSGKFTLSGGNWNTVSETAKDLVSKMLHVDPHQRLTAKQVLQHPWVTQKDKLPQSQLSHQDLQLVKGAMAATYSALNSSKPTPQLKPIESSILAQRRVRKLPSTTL
UniProt Q9NYA1, whole entry: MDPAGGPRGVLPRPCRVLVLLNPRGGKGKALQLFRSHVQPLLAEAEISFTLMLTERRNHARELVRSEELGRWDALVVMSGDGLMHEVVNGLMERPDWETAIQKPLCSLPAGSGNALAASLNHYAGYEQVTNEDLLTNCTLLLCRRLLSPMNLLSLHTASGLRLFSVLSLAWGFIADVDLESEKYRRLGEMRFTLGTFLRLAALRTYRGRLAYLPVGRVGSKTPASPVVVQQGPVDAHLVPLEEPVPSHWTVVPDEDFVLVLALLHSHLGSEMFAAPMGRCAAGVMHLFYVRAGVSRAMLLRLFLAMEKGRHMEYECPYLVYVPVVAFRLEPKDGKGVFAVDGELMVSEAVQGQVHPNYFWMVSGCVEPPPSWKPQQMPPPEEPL
UniProt Q9Y6E0: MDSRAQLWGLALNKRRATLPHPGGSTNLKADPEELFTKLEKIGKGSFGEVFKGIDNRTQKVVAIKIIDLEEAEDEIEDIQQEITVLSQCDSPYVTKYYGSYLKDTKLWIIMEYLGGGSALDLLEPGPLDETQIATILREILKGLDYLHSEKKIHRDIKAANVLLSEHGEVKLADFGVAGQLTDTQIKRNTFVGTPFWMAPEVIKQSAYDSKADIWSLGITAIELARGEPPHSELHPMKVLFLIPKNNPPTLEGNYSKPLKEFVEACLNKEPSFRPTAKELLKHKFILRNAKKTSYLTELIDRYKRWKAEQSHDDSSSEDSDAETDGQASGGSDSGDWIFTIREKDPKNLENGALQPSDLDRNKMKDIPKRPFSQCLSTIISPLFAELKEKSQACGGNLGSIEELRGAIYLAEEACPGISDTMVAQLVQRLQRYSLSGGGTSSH

Measured: kinase-Nluc reporter destabilization hit call

CO[C@]1(C(=O)N[C@@H](C)c2ccc(-n3cc(F)cn3)nc2)CC[C@H](c2nc(C)cc(Nc3cc(C)[nH]n3)n2)CC1 [Pralsetinib] (10 µM)
inactive: RET 0 | [1] 0 | RIOK1 = 0 | RIPK1 = 0 | RIPK2 = 0 | ROR2 = 0 | RPS6KA1 = 0 | SPHK1 = 0 | SRC 0 | STK24 = 0

O=c1cc(N2CCOCC2)oc2c(-c3cccc4c3sc3ccccc34)cccc12 (10 µM)
inactive: RET 0 | [1] 0 | RIOK1 = 0 | RIPK1 = 0 | RIPK2 = 0 | ROR2 = 0 | RPS6KA1 = 0 | SPHK1 = 0 | SRC 0 | STK24 = 0

CN1CCN(Cc2ccc(-c3cnc4[nH]cc(-c5ccc6[nH]ccc6c5)c4c3)cc2)CC1 (2.5 µM)
inactive: RET 0 | [1] 0 | RIOK1 = 0 | RIPK1 = 0 | RIPK2 = 0 | ROR2 = 0 | RPS6KA1 = 0 | SPHK1 = 0 | SRC 0 | STK24 = 0

O=C(NC[C@H](O)CO)c1ccncc1Nc1ccc(I)cc1F [Pimasertib] (10 µM)
inactive: RET 0 | [1] 0 | RIOK1 = 0 | RIPK1 = 0 | RIPK2 = 0 | ROR2 = 0 | RPS6KA1 = 0 | SPHK1 = 0 | SRC 0 | STK24 = 0

CCCCNc1ncc(C(=O)NCc2ccc(-n3ccnc3)cc2)c(NC2CCC(O)CC2)n1 (stereo not given) (10 µM)
inactive: RET 0 | [1] 0 | RIOK1 = 0 | RIPK1 = 0 | RIPK2 = 0 | ROR2 = 0 | RPS6KA1 = 0 | SPHK1 = 0 | SRC 0 | STK24 = 0

CN(C)C(=O)c1cc2cnc(Nc3ccc(N4CCN(CCCCNC(=O)COc5cccc6c5C(=O)N(C5CCC(=O)NC5=O)C6=O)CC4)cn3)nc2n1C1CCCC1 (stereo not given) (10 µM)
inactive: RET 0 | [1] 0 | RIOK1 = 0 | RIPK1 = 0 | RIPK2 = 0 | ROR2 = 0 | RPS6KA1 = 0 | SPHK1 = 0 | SRC 0 | STK24 = 0

CC1=C(C#N)C(c2ccc3[nH]nc(C)c3c2)C(C#N)=C(C)N1 (10 µM)
inactive: RET 0 | [1] 0 | RIOK1 = 0 | RIPK1 = 0 | RIPK2 = 0 | ROR2 = 0 | RPS6KA1 = 0 | SPHK1 = 0 | SRC 0 | STK24 = 0

O=C1OC(COc2ccccc2[N+](=O)[O-])CC1Cc1ccccc1 (stereo not given) (10 µM)
inactive: RET 0 | [1] 0 | RIOK1 = 0 | RIPK1 = 0 | RIPK2 = 0 | ROR2 = 0 | RPS6KA1 = 0 | SPHK1 = 0 | SRC 0 | STK24 = 0

Cc1ccc(Nc2cc(N[C@@H]3CCCC[C@@H]3N)nnc2C(N)=O)nc1C (2 µM)
inactive: RET 0 | [1] 0 | RIOK1 = 0 | RIPK1 = 0 | RIPK2 = 0 | ROR2 = 0 | RPS6KA1 = 0 | SPHK1 = 0 | SRC 0 | STK24 = 0

N#C/C(=C/c1ccc(O)c(O)c1)C(=O)N1CCc2ccccc21 [Tyrphostin AG 528] (10 µM)
inactive: RET 0 | [1] 0 | RIOK1 = 0 | RIPK1 = 0 | RIPK2 = 0 | ROR2 = 0 | RPS6KA1 = 0 | SPHK1 = 0 | SRC 0 | STK24 = 0

O=c1cc(-c2ccc(O[C@@H]3O[C@H](CO)[C@@H](O)[C@H](O)[C@H]3O)cc2)oc2cc(O)c([C@@H]3O[C@H](CO)[C@@H](O)[C@H](O)[C@H]3O[C@@H]3OC[C@H](O)[C@H](O)[C@H]3O)c(O)c12 [Vaccarin] (10 µM)
inactive: RET 0 | [1] 0 | RIOK1 = 0 | RIPK1 = 0 | RIPK2 = 0 | ROR2 = 0 | RPS6KA1 = 0 | SPHK1 = 0 | SRC 0 | STK24 = 0

Not a retest: 6 of the compounds above.
O=C(NC[C@H](O)CO)c1ccncc1Nc1ccc(I)cc1F [Pimasertib] (10 µM)
inactive: RET 0 | [1] 0 | RIOK1 = 0 | RIPK1 = 0 | RIPK2 = 0 | ROR2 = 0 | RPS6KA1 = 0 | SPHK1 = 0 | SRC 0 | STK24 = 0

CCCCNc1ncc(C(=O)NCc2ccc(-n3ccnc3)cc2)c(NC2CCC(O)CC2)n1 (stereo not given) (10 µM)
inactive: RET 0 | [1] 0 | RIOK1 = 0 | RIPK1 = 0 | RIPK2 = 0 | ROR2 = 0 | RPS6KA1 = 0 | SPHK1 = 0 | SRC 0 | STK24 = 0

CN(C)C(=O)c1cc2cnc(Nc3ccc(N4CCN(CCCCNC(=O)COc5cccc6c5C(=O)N(C5CCC(=O)NC5=O)C6=O)CC4)cn3)nc2n1C1CCCC1 (stereo not given) (10 µM)
inactive: RET 0 | [1] 0 | RIOK1 = 0 | RIPK1 = 0 | RIPK2 = 0 | ROR2 = 0 | RPS6KA1 = 0 | SPHK1 = 0 | SRC 0 | STK24 = 0

CC1=C(C#N)C(c2ccc3[nH]nc(C)c3c2)C(C#N)=C(C)N1 (10 µM)
inactive: RET 0 | [1] 0 | RIOK1 = 0 | RIPK1 = 0 | RIPK2 = 0 | ROR2 = 0 | RPS6KA1 = 0 | SPHK1 = 0 | SRC 0 | STK24 = 0

O=C1OC(COc2ccccc2[N+](=O)[O-])CC1Cc1ccccc1 (stereo not given) (10 µM)
inactive: RET 0 | [1] 0 | RIOK1 = 0 | RIPK1 = 0 | RIPK2 = 0 | ROR2 = 0 | RPS6KA1 = 0 | SPHK1 = 0 | SRC 0 | STK24 = 0

Cc1ccc(Nc2cc(N[C@@H]3CCCC[C@@H]3N)nnc2C(N)=O)nc1C (2 µM)
inactive: RET 0 | [1] 0 | RIOK1 = 0 | RIPK1 = 0 | RIPK2 = 0 | ROR2 = 0 | RPS6KA1 = 0 | SPHK1 = 0 | SRC 0 | STK24 = 0

Following part:

CC(=O)O[C@@H]1[C@@H](OC(C)=O)[C@@H](O)[C@H](Oc2c(-c3ccc(O)cc3)oc3cc(O)cc(O)c3c2=O)O[C@H]1C (10 µM)
inactive: RET 0 | [1] 0 | RIOK1 = 0 | RIPK1 = 0 | RIPK2 = 0 | ROR2 = 0 | RPS6KA1 = 0 | SPHK1 = 0 | SRC 0 | STK24 = 0

Cc1ncc(-c2cc(F)c(O)c(F)c2)cc1-c1cc(F)c(O)c(F)c1 (10 µM)
inactive: RET 0 | [1] 0 | RIOK1 = 0 | RIPK1 = 0 | RIPK2 = 0 | ROR2 = 0 | RPS6KA1 = 0 | SPHK1 = 0 | SRC 0 | STK24 = 0

CC1(C)C=Cc2c(ccc(C(=O)/C=C/c3ccc(O)cc3)c2O)O1 [4-Hydroxylonchocarpin] (10 µM)
inactive: RET 0 | [1] 0 | RIOK1 = 0 | RIPK1 = 0 | RIPK2 = 0 | ROR2 = 0 | RPS6KA1 = 0 | SPHK1 = 0 | SRC 0 | STK24 = 0

O=C(Nc1ccc(F)cc1F)C(NC(=S)Nc1cc(C(F)(F)F)cc(C(F)(F)F)c1)c1ccccc1 (racemic) (2.5 µM)
inactive: RET 0 | [1] 0 | RIOK1 = 0 | RIPK1 = 0 | RIPK2 = 0 | ROR2 = 0 | RPS6KA1 = 0 | SPHK1 = 0 | SRC 0 | STK24 = 0

COc1cc(Nc2ccnc3ccc(Br)cc23)cc(OC)c1OC (2.5 µM)
inactive: RET 0 | [1] 0 | RIOK1 = 0 | RIPK1 = 0 | RIPK2 = 0 | ROR2 = 0 | RPS6KA1 = 0 | SPHK1 = 0 | SRC 0 | STK24 = 0

Nc1[nH]nc2nnc(-c3c(-c4ccccc4)nn4ccccc34)cc12 (10 µM)
inactive: RET 0 | [1] 0 | RIOK1 = 0 | RIPK1 = 0 | RIPK2 = 0 | ROR2 = 0 | RPS6KA1 = 0 | SPHK1 = 0 | SRC 0 | STK24 = 0

COc1cc2nnc(C(N)=O)c(Nc3ccc(C)cc3F)c2cc1N1CCN(CCO)CC1 (2.5 µM)
inactive: RET 0 | [1] 0 | RIOK1 = 0 | RIPK1 = 0 | RIPK2 = 0 | ROR2 = 0 | RPS6KA1 = 0 | SPHK1 = 0 | SRC 0 | STK24 = 0

CNCCOc1ccccc1C1(Nc2nccn(-c3cc(C(=O)NC4CC4)cc(F)c3C)c2=O)CC1 (10 µM)
inactive: RET 0 | [1] 0 | RIOK1 = 0 | RIPK1 = 0 | RIPK2 = 0 | ROR2 = 0 | RPS6KA1 = 0 | SPHK1 = 0 | SRC 0 | STK24 = 0

CN1CCC(Nc2ccc(C(=O)Nc3cc(-c4ccc5c(c4)OCO5)[nH]n3)cc2)CC1 (10 µM)
inactive: RET 0 | [1] 0 | RIOK1 = 0 | RIPK1 = 0 | RIPK2 = 0 | ROR2 = 0 | RPS6KA1 = 0 | SPHK1 = 0 | SRC 0 | STK24 = 0

O=C(Nc1ccccc1C(=O)NC1CCCCNC1=O)c1cc2ccccc2s1 (stereo not given) (10 µM)
inactive: RET 0 | [1] 0 | RIOK1 = 0 | RIPK1 = 0 | RIPK2 = 0 | ROR2 = 0 | RPS6KA1 = 0 | SPHK1 = 0 | SRC 0 | STK24 = 0

Cc1n[nH]c2ncc(C(=O)N3CCC[C@H]3c3ccc(Cl)cc3)cc12 (10 µM)
inactive: RET 0 | [1] 0 | RIOK1 = 0 | RIPK1 = 0 | RIPK2 = 0 | ROR2 = 0 | RPS6KA1 = 0 | SPHK1 = 0 | SRC 0 | STK24 = 0

O=C(NCc1ccn[nH]1)c1cc([C@@H]2CCNC[C@H]2COc2ccc3c(c2)OCO3)ccc1F [GRK2-IN-1 (hydrochloride)] (10 µM)
inactive: RET 0 | [1] 0 | RIOK1 = 0 | RIPK1 = 0 | RIPK2 = 0 | ROR2 = 0 | RPS6KA1 = 0 | SPHK1 = 0 | SRC 0 | STK24 = 0

Cc1ncsc1-c1ccc(CNC(=O)[C@@H]2C[C@@H](O)CN2C(=O)[C@@H](NC(=O)COCCOc2ccc(-c3cc(Nc4ccc(OC(F)(F)F)cc4)ncn3)cc2)C(C)(C)C)cc1 (2.5 µM)
inactive: RET 0 | [1] 0 | RIOK1 = 0 | RIPK1 = 0 | RIPK2 = 0 | ROR2 = 0 | RPS6KA1 = 0 | SPHK1 = 0 | SRC 0 | STK24 = 0

Cc1ccc(NC(=O)N2CCN(c3nc(N)nc4sc(-c5cccnc5)nc34)CC2)cc1 [PI4KIII beta inhibitor 3] (10 µM)
inactive: RET 0 | [1] 0 | RIOK1 = 0 | RIPK1 = 0 | RIPK2 = 0 | ROR2 = 0 | RPS6KA1 = 0 | SPHK1 = 0 | SRC 0 | STK24 = 0

Fc1ccc(-c2nc3n(c2-c2ccncc2)CCS3)cc1 (10 µM)
inactive: RET 0 | [1] 0 | RIOK1 = 0 | RIPK1 = 0 | RIPK2 = 0 | ROR2 = 0 | RPS6KA1 = 0 | SPHK1 = 0 | SRC 0 | STK24 = 0

CN1C(=O)N[C@@H](Cc2c[nH]c3c(Cl)cccc23)C1=O [Necrostatin 2 (S enantiomer)] (10 µM)
inactive: RET 0 | [1] 0 | RIOK1 = 0 | RIPK1 = 0 | RIPK2 = 0 | ROR2 = 0 | RPS6KA1 = 0 | SPHK1 = 0 | SRC 0 | STK24 = 0

N#Cc1cnc(Nc2cc(NC[C@H]3CNCCO3)c(C(F)(F)F)cn2)cn1 (10 µM)
inactive: RET 0 | [1] 0 | RIOK1 = 0 | RIPK1 = 0 | RIPK2 = 0 | ROR2 = 0 | RPS6KA1 = 0 | SPHK1 = 0 | SRC 0 | STK24 = 0

— the supplement of paper PMC12823440, “Inhibitors supercharge kinase turnover through native proteolytic circuits” (Nature, 2025)
